Data as given in the supplement of paper PMC10849652.
The list shows a part of the results.

Chains of the proteins cited; added tags and fusions are not shown. Lines headed by an entry give the natural chain unless they say otherwise; changes in a name come on top.
UniProt Q9NYL9: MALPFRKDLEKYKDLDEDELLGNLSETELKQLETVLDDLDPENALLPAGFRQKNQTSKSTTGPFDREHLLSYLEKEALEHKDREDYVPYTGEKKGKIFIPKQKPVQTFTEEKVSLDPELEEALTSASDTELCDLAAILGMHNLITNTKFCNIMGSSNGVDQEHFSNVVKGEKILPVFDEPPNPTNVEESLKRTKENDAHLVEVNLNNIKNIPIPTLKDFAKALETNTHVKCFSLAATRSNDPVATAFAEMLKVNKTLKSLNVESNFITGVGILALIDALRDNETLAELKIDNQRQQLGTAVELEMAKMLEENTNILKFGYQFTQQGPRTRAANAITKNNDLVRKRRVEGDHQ
UniProt P17152: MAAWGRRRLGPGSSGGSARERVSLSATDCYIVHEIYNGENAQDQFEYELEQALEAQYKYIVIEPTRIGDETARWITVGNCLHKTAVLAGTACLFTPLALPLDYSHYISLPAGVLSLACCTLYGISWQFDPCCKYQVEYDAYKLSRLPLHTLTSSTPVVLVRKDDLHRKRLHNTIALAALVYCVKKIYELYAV
UniProt Q9H1E5: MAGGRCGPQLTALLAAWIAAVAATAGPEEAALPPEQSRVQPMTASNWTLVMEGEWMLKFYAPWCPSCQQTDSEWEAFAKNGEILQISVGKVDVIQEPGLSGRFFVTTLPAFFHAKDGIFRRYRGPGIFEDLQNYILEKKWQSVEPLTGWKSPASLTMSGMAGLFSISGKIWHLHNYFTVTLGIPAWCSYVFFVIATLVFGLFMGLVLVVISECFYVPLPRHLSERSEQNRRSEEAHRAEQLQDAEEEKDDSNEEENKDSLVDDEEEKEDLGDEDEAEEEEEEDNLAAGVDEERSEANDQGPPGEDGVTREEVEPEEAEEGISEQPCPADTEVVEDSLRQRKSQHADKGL
UniProt Q9BVT8: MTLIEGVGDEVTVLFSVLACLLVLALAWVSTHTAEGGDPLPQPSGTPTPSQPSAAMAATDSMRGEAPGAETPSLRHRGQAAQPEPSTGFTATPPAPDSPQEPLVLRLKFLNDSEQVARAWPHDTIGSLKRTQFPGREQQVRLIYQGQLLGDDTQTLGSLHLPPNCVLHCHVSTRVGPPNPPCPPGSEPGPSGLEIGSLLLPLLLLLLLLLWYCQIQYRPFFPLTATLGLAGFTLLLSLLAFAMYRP
UniProt Q9BTV4: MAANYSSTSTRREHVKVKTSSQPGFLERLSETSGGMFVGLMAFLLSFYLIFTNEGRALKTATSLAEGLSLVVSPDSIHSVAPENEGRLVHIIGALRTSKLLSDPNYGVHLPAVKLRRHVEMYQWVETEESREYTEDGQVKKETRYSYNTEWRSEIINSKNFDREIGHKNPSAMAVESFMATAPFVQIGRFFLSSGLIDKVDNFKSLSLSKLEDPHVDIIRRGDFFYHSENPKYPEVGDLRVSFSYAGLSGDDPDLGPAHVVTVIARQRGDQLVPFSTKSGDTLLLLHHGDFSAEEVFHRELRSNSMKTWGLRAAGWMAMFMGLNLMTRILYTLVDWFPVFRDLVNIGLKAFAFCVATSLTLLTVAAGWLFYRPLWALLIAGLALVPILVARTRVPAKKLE
UniProt Q71RG4: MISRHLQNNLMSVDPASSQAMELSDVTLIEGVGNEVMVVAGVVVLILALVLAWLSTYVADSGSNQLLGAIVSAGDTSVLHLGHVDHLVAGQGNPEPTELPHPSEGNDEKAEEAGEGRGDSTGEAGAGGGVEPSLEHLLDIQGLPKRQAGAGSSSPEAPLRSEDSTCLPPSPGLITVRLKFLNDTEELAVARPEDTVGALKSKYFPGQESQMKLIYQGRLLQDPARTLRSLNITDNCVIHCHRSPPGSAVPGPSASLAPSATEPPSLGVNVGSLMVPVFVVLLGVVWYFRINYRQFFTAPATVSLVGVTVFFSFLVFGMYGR
UniProt Q9NX00: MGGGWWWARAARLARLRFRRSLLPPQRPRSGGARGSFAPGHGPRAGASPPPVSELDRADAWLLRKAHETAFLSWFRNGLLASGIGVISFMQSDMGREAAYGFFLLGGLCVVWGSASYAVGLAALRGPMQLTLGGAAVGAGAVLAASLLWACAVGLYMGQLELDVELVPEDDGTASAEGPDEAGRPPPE
UniProt Q5BJF2, whole entry, looked up: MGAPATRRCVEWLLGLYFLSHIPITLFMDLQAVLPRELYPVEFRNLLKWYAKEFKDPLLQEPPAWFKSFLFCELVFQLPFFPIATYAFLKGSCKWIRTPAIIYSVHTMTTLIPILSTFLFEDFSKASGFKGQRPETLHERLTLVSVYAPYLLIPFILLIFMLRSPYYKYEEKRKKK
UniProt Q9NV96: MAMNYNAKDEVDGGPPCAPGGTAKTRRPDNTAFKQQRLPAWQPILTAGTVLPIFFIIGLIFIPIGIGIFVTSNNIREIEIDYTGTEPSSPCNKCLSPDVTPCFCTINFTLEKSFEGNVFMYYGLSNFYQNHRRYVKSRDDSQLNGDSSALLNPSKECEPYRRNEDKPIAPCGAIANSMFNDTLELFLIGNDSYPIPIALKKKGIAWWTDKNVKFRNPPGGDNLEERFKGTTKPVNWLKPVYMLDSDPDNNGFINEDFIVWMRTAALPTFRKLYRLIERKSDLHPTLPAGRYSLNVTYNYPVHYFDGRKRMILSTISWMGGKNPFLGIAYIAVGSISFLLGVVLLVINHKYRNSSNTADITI
UniProt Q9NZR1: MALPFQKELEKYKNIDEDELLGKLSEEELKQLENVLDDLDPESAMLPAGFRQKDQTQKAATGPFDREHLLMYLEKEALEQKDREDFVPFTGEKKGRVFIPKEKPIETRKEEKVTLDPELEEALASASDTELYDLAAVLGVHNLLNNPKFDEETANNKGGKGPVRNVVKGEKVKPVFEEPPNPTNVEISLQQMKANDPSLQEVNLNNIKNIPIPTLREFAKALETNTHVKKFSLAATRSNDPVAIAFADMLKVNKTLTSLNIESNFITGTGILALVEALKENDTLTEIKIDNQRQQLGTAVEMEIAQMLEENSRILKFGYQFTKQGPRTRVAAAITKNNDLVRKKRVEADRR
UniProt P57088: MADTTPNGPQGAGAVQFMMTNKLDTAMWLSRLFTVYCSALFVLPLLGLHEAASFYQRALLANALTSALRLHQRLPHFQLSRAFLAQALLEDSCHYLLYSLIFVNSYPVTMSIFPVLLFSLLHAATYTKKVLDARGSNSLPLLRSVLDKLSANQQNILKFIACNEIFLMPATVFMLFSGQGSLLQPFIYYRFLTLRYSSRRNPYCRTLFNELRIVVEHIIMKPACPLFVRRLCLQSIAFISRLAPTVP
UniProt P42167: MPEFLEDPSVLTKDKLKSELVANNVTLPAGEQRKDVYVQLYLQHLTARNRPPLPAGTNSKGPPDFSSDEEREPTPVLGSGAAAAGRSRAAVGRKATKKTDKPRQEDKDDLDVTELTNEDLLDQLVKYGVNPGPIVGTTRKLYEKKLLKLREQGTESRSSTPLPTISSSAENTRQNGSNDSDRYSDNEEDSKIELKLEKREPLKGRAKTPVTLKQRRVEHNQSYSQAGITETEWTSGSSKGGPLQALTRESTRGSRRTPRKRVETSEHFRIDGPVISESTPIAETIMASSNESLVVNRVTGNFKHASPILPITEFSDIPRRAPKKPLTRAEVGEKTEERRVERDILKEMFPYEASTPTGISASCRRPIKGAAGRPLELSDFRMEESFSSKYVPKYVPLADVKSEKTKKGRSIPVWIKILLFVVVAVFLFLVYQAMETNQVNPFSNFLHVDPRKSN
UniProt P28289: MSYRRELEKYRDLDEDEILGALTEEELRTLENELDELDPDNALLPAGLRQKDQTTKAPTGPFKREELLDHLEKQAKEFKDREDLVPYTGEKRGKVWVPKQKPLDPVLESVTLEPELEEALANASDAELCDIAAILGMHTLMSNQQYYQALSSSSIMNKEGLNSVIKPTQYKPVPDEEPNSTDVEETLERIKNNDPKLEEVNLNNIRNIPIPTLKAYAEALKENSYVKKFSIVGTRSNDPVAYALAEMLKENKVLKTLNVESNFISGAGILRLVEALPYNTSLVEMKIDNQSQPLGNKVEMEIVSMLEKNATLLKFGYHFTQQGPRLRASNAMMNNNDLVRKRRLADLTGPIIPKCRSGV
UniProt Q9BVK6: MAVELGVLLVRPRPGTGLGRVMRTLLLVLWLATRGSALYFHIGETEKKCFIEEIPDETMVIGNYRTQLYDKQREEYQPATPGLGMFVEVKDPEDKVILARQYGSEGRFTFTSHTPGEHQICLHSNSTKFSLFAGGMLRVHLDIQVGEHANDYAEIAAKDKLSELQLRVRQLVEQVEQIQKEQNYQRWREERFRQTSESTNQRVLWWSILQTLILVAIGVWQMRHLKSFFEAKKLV
UniProt Q86UB9: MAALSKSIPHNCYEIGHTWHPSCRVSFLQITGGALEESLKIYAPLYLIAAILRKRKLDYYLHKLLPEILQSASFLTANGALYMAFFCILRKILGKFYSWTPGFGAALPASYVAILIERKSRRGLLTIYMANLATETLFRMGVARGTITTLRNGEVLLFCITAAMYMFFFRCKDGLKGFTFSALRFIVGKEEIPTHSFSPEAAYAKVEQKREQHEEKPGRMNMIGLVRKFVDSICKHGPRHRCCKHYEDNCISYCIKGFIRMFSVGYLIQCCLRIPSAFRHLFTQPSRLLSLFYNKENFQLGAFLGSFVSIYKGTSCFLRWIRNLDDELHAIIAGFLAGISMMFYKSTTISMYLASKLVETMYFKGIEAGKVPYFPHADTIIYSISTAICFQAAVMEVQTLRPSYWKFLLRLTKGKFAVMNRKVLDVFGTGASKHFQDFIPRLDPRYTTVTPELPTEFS
UniProt P63313: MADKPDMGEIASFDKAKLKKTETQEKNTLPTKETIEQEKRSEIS
UniProt Q9H0R3: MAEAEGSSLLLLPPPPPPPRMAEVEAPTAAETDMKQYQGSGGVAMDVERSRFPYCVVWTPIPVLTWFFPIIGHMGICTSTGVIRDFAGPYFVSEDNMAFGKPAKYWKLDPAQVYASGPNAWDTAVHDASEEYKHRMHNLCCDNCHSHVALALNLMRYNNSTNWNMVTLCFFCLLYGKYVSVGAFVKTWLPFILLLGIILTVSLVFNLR
UniProt Q13445: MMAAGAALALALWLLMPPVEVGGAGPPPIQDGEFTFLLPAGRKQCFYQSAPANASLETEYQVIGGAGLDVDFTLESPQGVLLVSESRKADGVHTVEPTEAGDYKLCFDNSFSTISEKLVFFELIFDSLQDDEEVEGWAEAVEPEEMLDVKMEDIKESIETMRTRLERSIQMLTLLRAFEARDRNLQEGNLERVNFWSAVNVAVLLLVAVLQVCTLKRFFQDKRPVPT
UniProt Q9H061: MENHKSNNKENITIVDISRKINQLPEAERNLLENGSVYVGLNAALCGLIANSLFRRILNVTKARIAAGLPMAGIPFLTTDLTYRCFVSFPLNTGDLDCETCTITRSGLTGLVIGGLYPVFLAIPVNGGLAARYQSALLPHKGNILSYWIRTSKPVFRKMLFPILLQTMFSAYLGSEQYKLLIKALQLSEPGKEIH
UniProt A5PLL7: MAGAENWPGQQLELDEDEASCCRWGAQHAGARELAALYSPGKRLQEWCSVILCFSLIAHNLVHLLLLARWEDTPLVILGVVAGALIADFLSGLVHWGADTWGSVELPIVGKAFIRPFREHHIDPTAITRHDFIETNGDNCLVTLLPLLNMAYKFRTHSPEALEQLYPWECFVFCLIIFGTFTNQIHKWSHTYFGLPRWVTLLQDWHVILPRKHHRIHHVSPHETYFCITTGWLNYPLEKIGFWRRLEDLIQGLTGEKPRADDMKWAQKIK
UniProt Q4ZIN3: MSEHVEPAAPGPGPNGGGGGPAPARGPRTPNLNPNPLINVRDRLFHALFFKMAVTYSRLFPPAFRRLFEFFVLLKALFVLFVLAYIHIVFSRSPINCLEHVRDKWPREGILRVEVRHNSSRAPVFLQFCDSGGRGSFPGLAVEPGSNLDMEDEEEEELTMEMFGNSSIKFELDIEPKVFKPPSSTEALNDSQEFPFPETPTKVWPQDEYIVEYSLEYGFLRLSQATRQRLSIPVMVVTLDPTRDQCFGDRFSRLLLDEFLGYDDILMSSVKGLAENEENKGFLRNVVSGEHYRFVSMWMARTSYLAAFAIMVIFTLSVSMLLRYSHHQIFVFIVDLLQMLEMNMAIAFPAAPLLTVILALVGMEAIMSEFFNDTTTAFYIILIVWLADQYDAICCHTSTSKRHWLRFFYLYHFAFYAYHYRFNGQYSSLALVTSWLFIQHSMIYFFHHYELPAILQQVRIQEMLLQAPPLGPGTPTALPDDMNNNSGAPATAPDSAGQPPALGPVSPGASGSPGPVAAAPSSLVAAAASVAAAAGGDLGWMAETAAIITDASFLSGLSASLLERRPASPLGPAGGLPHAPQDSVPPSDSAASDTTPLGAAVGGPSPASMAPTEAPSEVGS
UniProt Q9HC07: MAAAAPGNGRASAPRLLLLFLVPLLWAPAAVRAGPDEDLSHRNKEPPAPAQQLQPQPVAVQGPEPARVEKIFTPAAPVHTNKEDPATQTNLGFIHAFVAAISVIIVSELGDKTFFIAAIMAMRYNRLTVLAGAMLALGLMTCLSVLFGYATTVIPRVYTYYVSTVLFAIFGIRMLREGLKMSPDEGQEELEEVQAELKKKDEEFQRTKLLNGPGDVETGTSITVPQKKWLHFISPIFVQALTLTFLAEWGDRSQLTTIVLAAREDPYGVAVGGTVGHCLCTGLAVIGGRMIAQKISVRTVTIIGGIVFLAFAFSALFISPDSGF

Legend:
Test in all cases: log2 fold change, soluble protein after heating vs DMSO (PISA); higher = thermal stabilisation; K562 cells, 10 uM, 30 min; active = over 0.2 and 3.5 SD of the protein, either way, in both replicates (recomputed)
[1] = compound: CC[C@@H]1C(=O)N(C)c2cnc(Nc3ccc(C(=O)NC4CCN(C)CC4)cc3OC)nc2N1C1CCCC1
How it was run: (§1)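 Values are thermal stability changes relative to control samples and are taken from duplicates. They are stated as log2 fold changes. Before quantification by TMTpro 16plex LC-MS/MS with equalised channel sums, K562 cells at 2×10^6 cells/mL were treated with 10 μM compound for 30 min, heated in aliquots for 3 min across 48°C-58°C, pooled, extracted in PBS with 0.5% NP-40 at 4°C, and centrifuged at 21,000xg for 90 min to give the soluble supernatant.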

volasertib = compound: CC[C@@H]1C(=O)N(C)c2cnc(Nc3ccc(C(=O)N[C@H]4CC[C@H](N5CCN(CC6CC6)CC5)CC4)cc3OC)nc2N1C(C)C [volasertib]
How it was run: as §1

[2] = compound: CC[C@H](C)N1C=C(C2=C(C=C(C=C21)C3=CN=C(C=C3)N4CCNCC4)C(=O)NCC5=C(C=C(NC5=O)C)C)C
How it was run: as §1

epoxomicin = compound: CC[C@H](C)[C@@H](C(=O)N[C@@H]([C@@H](C)O)C(=O)N[C@@H](CC(C)C)C(=O)[C@]1(CO1)C)NC(=O)[C@H]([C@@H](C)CC)N(C)C(=O)C [epoxomicin]
How it was run: as §1

[3] = compound: CCn1c(C(=O)N(C2CC2)C2CC2)cc2c3c(ncn3C)c(Nc3cc(C)n(C)n3)nc21
How it was run: as §1

[4] = compound: CCn1cc(-c2ccnc3[nH]c(-c4cccc(CN(C)C)c4)cc23)c(-c2ccc(NC(=O)N(C)C)cc2)n1
How it was run: as §1

[5] = compound: CN(C)CC(=O)Nc1ccc2[nH]c(=O)c3ccccc3c2c1
How it was run: as §1

rosiglitazone = compound: CN(CCOC1=CC=C(C=C1)C[C@H]2C(=O)NC(=O)S2)C3=CC=CC=N3 (racemic) [rosiglitazone]
How it was run: as §1

[6] = compound: CN1C2=C(C3=C1C(=O)N(N=C3)CC4=CC(=CC=C4)N)SC(=C2)S(=O)C
How it was run: as §1

[7] = compound: CN1CCC(CNc2ccc3ncc(-c4cccc(OC(F)(F)F)c4)n3n2)CC1
How it was run: as §1

Measured: log2 fold change

TMOD3 (UniProt Q9NYL9)
inactive: [1] -0.016 | volasertib -0.175 | [2] 0.045 | epoxomicin 0.034 | [3] -0.027 | [4] 0.019 | [5] 0.022 | rosiglitazone 0.009 | [6] -0.006 | [7] 0.027

TMEM11 (UniProt P17152)
inactive: [1] -0.055 | volasertib -0.003 | [2] 0.005 | epoxomicin -0.022 | [3] 0.046 | [4] -0.04 | [5] 0.034 | rosiglitazone 0.042 | [6] -0.111 | [7] -0.01

TMC1 (UniProt Q8TDI8)
inactive: [1] 0.345 | volasertib 0.046 | [2] -0.32 | epoxomicin -0.311 | [3] 0.006 | [4] 0.1 | [5] -0.011 | rosiglitazone 0.233 | [6] -0.103 | [7] 0.019

TMEM167A (UniProt Q8TBQ9)
inactive: [1] 0.033 | volasertib 0.084 | [2] -0.101 | epoxomicin 0.005 | [3] 0.024 | [4] -0.033 | [5] 0.056 | rosiglitazone -0.035 | [6] -0.068 | [7] 0.023

TMX4 (UniProt Q9H1E5)
inactive: [1] 0.006 | volasertib 0.008 | [2] -0.028 | epoxomicin -0.002 | [3] -0.081 | [4] 0.038 | [5] 0.047 | rosiglitazone -0.012 | [6] 0.103 | [7] 0.035

TMUB1 (UniProt Q9BVT8)
inactive: [1] 0.003 | volasertib -0.151 | [2] -0.047 | epoxomicin 0.205 | [3] -0.054 | [4] 0.039 | [5] 0.043 | rosiglitazone 0.118 | [6] 0.052 | [7] 0.033

TMEM43 (UniProt Q9BTV4)
inactive: [1] 0 | volasertib -0.018 | [2] 0.013 | epoxomicin -0.007 | [3] 0.016 | [4] -0.019 | [5] -0.012 | rosiglitazone -0.008 | [6] 0.001 | [7] 0.005

TMUB2 (UniProt Q71RG4)
inactive: [1] 0.054 | volasertib 0.127 | [2] 0.03 | epoxomicin -0.029 | [3] 0.024 | [4] 0.102 | [5] 0.036 | rosiglitazone 0.055 | [6] -0.003 | [7] 0.07

TMEM160 (UniProt Q9NX00)
inactive: [1] 0.079 | volasertib -0.02 | [2] -0.058 | epoxomicin -0.065 | [3] 0.018 | [4] 0.021 | [5] 0.047 | rosiglitazone -0.047 | [6] 0.261 | [7] -0.036

TMEM97 (UniProt Q5BJF2)
inactive: [1] 0.007 | volasertib 0.147 | [2] -0.067 | epoxomicin -0.056 | [3] 0.037 | [4] -0.005 | [5] -0.035 | rosiglitazone 0.017 | [6] -0.031 | [7] 0.105

TMEM30A (UniProt Q9NV96)
inactive: [1] 0.04 | volasertib 0.039 | [2] -0.035 | epoxomicin -0.009 | [3] 0.007 | [4] -0.015 | [5] -0.063 | rosiglitazone 0.015 | [6] -0.018 | [7] 0.012

TMLHE isoform 8 (UniProt Q9NVH6)
inactive: [1] -0.036 | volasertib 0.133 | [2] 0.062 | epoxomicin -0.016 | [3] 0.058 | [4] 0.001 | [5] -0.017 | rosiglitazone 0.027 | [6] -0.034 | [7] -0.082

TLN1 (UniProt Q9Y490)
inactive: [1] -0.058 | volasertib -0.187 | [2] 0.047 | epoxomicin 0.044 | [3] 0 | [4] -0.027 | [5] 0.025 | rosiglitazone 0.034 | [6] -0.031 | [7] -0.032

TMOD2 (UniProt Q9NZR1)
inactive: [1] 0.007 | volasertib 0.06 | [2] -0.055 | epoxomicin 0.016 | [3] 0.133 | [4] -0.051 | [5] -0.075 | rosiglitazone 0.016 | [6] 0.042 | [7] 0.045

TMEM33 (UniProt P57088)
inactive: [1] 0.036 | volasertib -0.008 | [2] -0.031 | epoxomicin 0.002 | [3] 0.014 | [4] 0 | [5] 0.055 | rosiglitazone 0.01 | [6] -0.073 | [7] 0.103

TMEM87A (UniProt Q8NBN3)
inactive: [1] -0.093 | volasertib -0.161 | [2] -0.027 | epoxomicin 0.041 | [3] 0.045 | [4] -0.015 | [5] -0.006 | rosiglitazone -0.016 | [6] -0.047 | [7] -0.048

TMPO isoform 2 (UniProt P42167)
inactive: [1] 0.021 | volasertib 0.099 | [2] 0.008 | epoxomicin -0.03 | [3] 0.103 | [4] -0.156 | [5] -0.087 | rosiglitazone 0.026 | [6] -0.038 | [7] -0.069

Quoted from above (2 entries):
TMEM87A (UniProt Q8NBN3)
inactive: [1] -0.093 | volasertib -0.161 | [2] -0.027 | epoxomicin 0.041 | [3] 0.045 | [4] -0.015 | [5] -0.006 | rosiglitazone -0.016 | [6] -0.047 | [7] -0.048

TMPO isoform 2 (UniProt P42167)
inactive: [1] 0.021 | volasertib 0.099 | [2] 0.008 | epoxomicin -0.03 | [3] 0.103 | [4] -0.156 | [5] -0.087 | rosiglitazone 0.026 | [6] -0.038 | [7] -0.069

(cont.)

TMOD1 (UniProt P28289)
inactive: [1] -0.026 | volasertib -0.118 | [2] 0.054 | epoxomicin 0.054 | [3] 0.01 | [4] 0.046 | [5] 0.011 | rosiglitazone 0.009 | [6] 0.116 | [7] -0.028

TMED9 (UniProt Q9BVK6)
inactive: [1] 0.066 | volasertib 0.049 | [2] 0.009 | epoxomicin 0.008 | [3] -0.023 | [4] 0.045 | [5] 0.005 | rosiglitazone -0.013 | [6] -0.069 | [7] -0.016

TLN2 (UniProt Q9Y4G6)
inactive: [1] 0.076 | volasertib 0.012 | [2] -0.016 | epoxomicin 0.065 | [3] -0.023 | [4] 0.038 | [5] 0.02 | rosiglitazone 0.045 | [6] 0.113 | [7] 0.071

TMEM135 (UniProt Q86UB9)
inactive: [1] 0.087 | volasertib -0.042 | [2] -0.013 | epoxomicin 0.025 | [3] -0.03 | [4] 0.071 | [5] -0.02 | rosiglitazone -0.033 | [6] -0.034 | [7] 0.08

TMPO (UniProt P42167)
inactive: [1] -0.03 | volasertib 0.002 | [2] -0.015 | epoxomicin 0.008 | [3] 0 | [4] 0.02 | [5] -0.001 | rosiglitazone 0.011 | [6] -0.023 | [7] 0.051

TMSB10 (UniProt P63313)
inactive: [1] -0.046 | volasertib -0.017 | [2] -0.052 | epoxomicin 0.297 | [3] 0.036 | [4] -0.022 | [5] 0.008 | rosiglitazone 0.019 | [6] -0.029 | [7] 0.089

TM9SF1 (UniProt O15321)
inactive: [1] -0.216 | volasertib -0.232 | [2] -0.039 | epoxomicin -0.024 | [3] -0.031 | [4] -0.04 | [5] 0.028 | rosiglitazone 0.092 | [6] -0.05 | [7] -0.179

TMEM222 (UniProt Q9H0R3)
inactive: [1] 0.072 | volasertib 0.042 | [2] 0.019 | epoxomicin 0.079 | [3] -0.047 | [4] -0.011 | [5] 0.198 | rosiglitazone -0.027 | [6] 0.095 | [7] -0.057

TMED1 (UniProt Q13445)
inactive: [1] 0.064 | volasertib 0.033 | [2] -0.042 | epoxomicin 0.107 | [3] 0 | [4] 0.002 | [5] -0.031 | rosiglitazone 0.036 | [6] -0.128 | [7] 0.003

TMEM126A (UniProt Q9H061)
inactive: [1] -0.003 | volasertib 0.023 | [2] 0.007 | epoxomicin -0.026 | [3] 0.02 | [4] -0.095 | [5] 0.02 | rosiglitazone 0.005 | [6] -0.013 | [7] -0.02

TMEM189 (UniProt A5PLL7)
inactive: [1] -0.01 | volasertib -0.177 | [2] -0.07 | epoxomicin -0.08 | [3] 0.037 | [4] -0.067 | [5] 0.137 | rosiglitazone 0.013 | [6] 0.003 | [7] -0.001

TMEM259 (UniProt Q4ZIN3)
inactive: [1] -0.005 | volasertib 0.014 | [2] -0.049 | epoxomicin 0.062 | [3] 0.046 | [4] -0.209 | [5] -0.057 | rosiglitazone 0.033 | [6] 0.054 | [7] -0.001

TMEM165 (UniProt Q9HC07)
inactive: [1] -0.002 | volasertib 0.06 | [2] 0.018 | epoxomicin 0.013 | [3] 0.026 | [4] -0.005 | [5] -0.068 | rosiglitazone -0.011 | [6] 0.018 | [7] 0.039
